Measured values: patent US20250084172A1
Positions count from the first letter of the chain named. No constants are given. Whether binding was seen depends on the method and setting. Some results given as binding are weak or reduced against the parent protein; the word gives no strength. For part of these data: Sequences can lack the tags named with a protein.

Experiments:
[1] = biological target: T1, human ULBP6 displayed on M13 phage (ULBP6-HA-pIII) (human) (UniProt Q5VY80); test: phage ELISA: plate coated with the antibody, ULBP6 phage titrated in 3-fold steps from 1.0 O.D./mL, HRP anti-M13 detection, O.D. 450
T1 sequence: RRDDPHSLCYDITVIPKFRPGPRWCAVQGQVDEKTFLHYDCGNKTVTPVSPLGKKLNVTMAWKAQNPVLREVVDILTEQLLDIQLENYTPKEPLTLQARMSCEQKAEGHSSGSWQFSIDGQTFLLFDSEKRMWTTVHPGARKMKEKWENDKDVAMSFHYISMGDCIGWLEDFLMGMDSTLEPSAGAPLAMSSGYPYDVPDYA

[2] = biological target: T1, human ULBP6 displayed on M13 phage (ULBP6-HA-pIII) (human); test: phage ELISA, antibody coated, anti-M13-HRP detection
[3] = biological target: T2, human ULBP6 (haplotype not stated) (human) (UniProt Q5VY80); test: summary of the screening
T2 sequence (looked up): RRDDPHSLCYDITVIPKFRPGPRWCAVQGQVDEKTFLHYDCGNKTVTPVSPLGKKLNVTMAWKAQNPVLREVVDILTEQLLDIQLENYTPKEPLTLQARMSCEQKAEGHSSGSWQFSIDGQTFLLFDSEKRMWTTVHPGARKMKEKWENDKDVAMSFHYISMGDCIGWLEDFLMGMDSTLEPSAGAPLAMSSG

[4] = biological target: T2, human ULBP6 (haplotype not stated) (human); test: description of the control antibody
[5] = biological target: T2, human ULBP6 (haplotype not stated) (human); test: tool antibody properties (FIG. 3A and FIG. 3B)

B1: humanized 1D4 (h1D4), Fc version not stated (antibody, V domains shown)
VH: EIQLVQSGSELKKPGASVKVSCKASGYTFTEYPIHWVRQAPGQGFEWMGMIYTDTGEPTHAEEFKGRFVFSLDTSVSTAYLQISSLKAEDTAVYFCVRWYDGSSYIMDYWGQGTTVTVSS
VL: DIQMTQSPSSLSASVGDRVTITCKASQDINSYLSWFQQKPGKSPKTLIYRANRLVDGVPSRFSGSGSGQDYTFTISSLQPEDIATYYCLQYDEFPLTFGGGTKVEIK
B1 was tested, and the binding [1] was “binds” and the binding [2] was “binds”.

B2: humanized 6E1 (h6E1), Fc version not stated (antibody, V domains shown)
VH: EVQLVQSGAEVKKPGASVKVSCKASGYTFTNYWMHWMRQAPGQGLEWLGRIHPSDSDTNYNQKFKGRATLTVDKSISTAYMELSRLRSDDTAVYYCAIEGTGKGYFDVWGRGTLVTVSS
VL: B1 VL with N30Y, Y71F, F73L, I83F, Q90H
With B2 the binding [1] was “binds” and the binding [2] was “binds”.

B3: humanized 7B3 (h7B3), Fc version not stated (antibody, V domains shown)
VH: EVQLVESGGGLVQPGGSLRLSCAASGFTFSTYGFHWVRQAPGKGLEWVAYISSNSGTIDYADTVKGRFTISRDNAKNSLYLQMNSLRAEDTAVYYCARQGYGFDNWGQGTTVTVSS
VL: DIQLTQSPSSLSASVGDRVTITCSASSRVSYMNWYQQKPGKSPKIWVYGISNLASGVPSRFSGSGSGTDFTFTISSLQPEDIATYYCQQRSSHPLTFGGGTKVEIK
With B3 the binding [1] was “binds” and the binding [2] was “binds”.

B4: humanized 8E11 (h8E11), Fc version not stated (antibody, V domains shown)
VH: B3 VH with S30R, F34M, N54G, A97T, G100T, Y101G, G102A, F103M, N105Y, T111L
VL: EIVLTQSPATLSLSPGERATLSCSASSSVSYMNWYQQKPGQSPRLWIYGISNLASGVPARFSGSGSGTDFTLTISSLEPEDFAVYYCQQRSSHPLTFGGGTKVEIK
With B4 the binding [1] was “binds” and the binding [2] was “binds”.

B5: humanized 8E8 (h8E8), Fc version not stated (antibody, V domains shown)
VH: QVQLVQSGAEVKKPGSSVKVSCKASGYTFTTYGITWVRQAPGQGLEWIGEIYPGTATSYSNERFKGRATLTADRSTSTAYMELSSLRSEDTAVYFCARRGTYGTYEWYFDVWGRGTLVTVSS
VL: DIQMTQSPSSLSASVGDRVTITCRASENIYSHLAWYQQKPGKSPKLLVYAATNLADGVPSRFSGSGSGTDYTLTISSLQPEDFATYYCQHFWGTPWTFGGGTKVEIK
For B5, the binding [3] was “binds”, the binding [4] was “binds” and the binding [2] was “binds”.

B6: Humanized 7B3 (h7B3) (E-) (antibody, human IgG1, kappa, N297G, V domains shown)
VH: B3 VH
VL: DIQLTQSPSSLSASVGDRVTITCSASSRVSYMNWYQQKPGKSPKIWVYGISNLASGVPSRFSGSGSGTDFTFTISSLQPEDIATYYCQQRSSHPLTFGGGTKVEIKR
In the case of B6, the binding [5] is reported as “binds”.
